# Experimental data: PubChem BioAssay AID686937 (Drosophila RNAi Screening Center, 2013)
# Screen: 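Genes whose loss weakens secretory pathway function in fly cells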 (primary screen)
# System: Drosophila S2 cells expressing secreted horseradish peroxidase
# Reagent: long dsRNA against Drosophila genes
# Duration: about 5.5 days (5 days dsRNA, then 12 h reporter induction)
# Conditions: reporter expression induced after 5 days of dsRNA, read 12 h later; inducer not stated
# Detection: 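Chemiluminescent measurement of peroxidase in the medium 12 h after reporter induction, following 5 days of dsRNA, given as a z-score per plate; higher means more secretion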
# Scale: z-score: higher = more reporter secreted into medium
# In all, the deposit lists about 23,000 reagents; shown is an unselected part of those that have a named target and a result. 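Reduced-secretion tags in replicate 1 do not always agree with the z-scores; no criterion for assigning the tags was given.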 A plus sign joins genes that one reagent is predicted to hit. Not all columns of the deposit are shown. The record does not give: the amount of reagent.
gene,dsRNA,"z-score, replicate 1","z-score, replicate 2","z-score, replicate 3"
Or19b + Or19a,DRSC22604,0.29,0,
Sam-S,DRSC00758,-1.89,-1.97,
Atg4a,DRSC00656,0.25,0.19,
Pp2A-29B,DRSC03400,0.46,-0.07,
CG7896,DRSC16335,0.52,0.5,
CycT,DRSC11124,-5.92,-5.09,
Gr28a,DRSC02290,0.05,0.08,
Start1,DRSC04384,0,0.25,
Dlg5,DRSC02964,-0.45,-0.07,
mRpS29,DRSC04398,0.25,0,
CG14840,DRSC14964,0.37,0.11,
CG42633,DRSC16061,0.2,0.39,
sob,DRSC00838,0.16,0.24,
mRpL11,DRSC15482,0.17,-0.16,
CG8006,DRSC10949,0.24,0.16,
l(2)gl,DRSC00825,0.57,0.29,
Jon99Ci,DRSC16860,0.1,-0.3,
CG7379,DRSC16237,0.27,0.23,0.5
CG8611,DRSC19340,0.23,0.33,
NT5E-2,DRSC06893,0.42,0.56,
CG4194,DRSC18520,0.26,0.38,
slmo + CG34179,DRSC03143,-0.61,-1.13,
PCNA2,DRSC02030,0.04,0.3,
bond,DRSC16135,0.32,0.27,
CG4783,DRSC15644,-1.5,-0.35,
Eig71Ed,DRSC11151,0.39,0.45,
rempA,DRSC00327,0.24,0.13,
CG7606,DRSC13246,0.51,0.24,
CG7606,DRSC16268,-0.29,-0.1,
Cyp6g2,DRSC07387,0.21,0.1,
CG32119,DRSC09248,0.28,0.53,0.41
CG32119,DRSC21462,0.9,0.88,
Vsx2,DRSC17397,-1.57,-1.77,-1.56
Vsx2,DRSC18087,0.46,-0.08,
Vsx2,DRSC18088,0.16,0.49,0.24
Vsx2,DRSC18089,0.31,0.46,0.57
CG5107,DRSC15716,0.53,0.24,
Dif,DRSC03316,-0.09,0.17,
scaf6,DRSC10075,0.35,0.18,
scaf6,DRSC10676,0.12,-0.19,
scaf6,DRSC10678,-1.19,-1.42,

The list goes on, starting with the last 5 of the part before.
gene,dsRNA,"z-score, replicate 1","z-score, replicate 2","z-score, replicate 3"
CG5107,DRSC15716,0.53,0.24,
Dif,DRSC03316,-0.09,0.17,
scaf6,DRSC10075,0.35,0.18,
scaf6,DRSC10676,0.12,-0.19,
scaf6,DRSC10678,-1.19,-1.42,
CheA29a,DRSC21486,0.04,-0.11,
poe,DRSC03593,0.68,0.54,
CG13965,DRSC02307,-0.04,0.07,
Shaw,DRSC00433,0.01,0.14,
Shaw,DRSC00788,0.62,0.25,0.04
Shaw,DRSC21368,1.33,-0.44,
CG32432,DRSC11703,-4.08,-3.89,
CG32432,DRSC11704,-2.22,-1.36,
CG32432,DRSC11744,0.23,0.01,
CG13362,DRSC17897,0.37,0.41,
Rnf11,DRSC21574,0.09,1.04,
Syt12,DRSC19359,0.28,0.58,
hyd,DRSC16971,0.43,0.17,
CG3702,DRSC00628,0.33,0.29,
CG12699,DRSC06162,0.73,0.58,
Npc2d,DRSC14551,0.24,0.2,
CG34347,DRSC14047,0.49,0.05,
CG34347,DRSC14305,-0.01,0.13,
CG34347,DRSC15104,-1.15,-0.79,
CG34347,DRSC15105,-1.26,-0.4,
CG15385,DRSC00399,0.14,0.41,
crok,DRSC02593,0.31,0.45,
crok,DRSC21349,0.2,-0.64,
CG4658,DRSC02768,0.84,0.72,
CG31821,DRSC22162,-0.31,-0.03,
Ir60e,DRSC04227,0.06,0.29,
CG43349,DRSC00039,0.46,0.59,-0.11
CG31974,DRSC00522,0.23,0.09,
Ack-like,DRSC07500,0.24,0.33,
Ack-like,DRSC21845,0.83,0.06,
dind,DRSC16294,0.2,0.34,
CG16953,DRSC15167,0.45,0.45,
CG42714,DRSC08798,-0.04,-0.49,
CG31636,DRSC02276,0.02,0.14,
Echs1,DRSC06999,0.6,0.59,
CG10822,DRSC06005,0.2,0.3,
CG7058,DRSC20021,0.25,0.31,
CG11362,DRSC04106,0.19,0.34,
CG11362,DRSC22032,0.33,0.02,
CG42710,DRSC01034,-0.02,0.29,
DIP-iota,DRSC02140,0.31,0.21,
